# PMC7337521
# Protein sequences, listed by entry. Tags and fused reporters are not part of them.
# UniProt Q9UBQ5: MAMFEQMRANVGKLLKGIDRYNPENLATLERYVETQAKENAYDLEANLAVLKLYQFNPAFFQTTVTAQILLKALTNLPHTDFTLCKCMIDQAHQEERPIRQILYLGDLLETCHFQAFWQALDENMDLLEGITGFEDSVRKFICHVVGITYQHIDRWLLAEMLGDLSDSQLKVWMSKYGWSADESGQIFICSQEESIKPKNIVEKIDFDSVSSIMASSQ
# UniProt Q9Y6M1: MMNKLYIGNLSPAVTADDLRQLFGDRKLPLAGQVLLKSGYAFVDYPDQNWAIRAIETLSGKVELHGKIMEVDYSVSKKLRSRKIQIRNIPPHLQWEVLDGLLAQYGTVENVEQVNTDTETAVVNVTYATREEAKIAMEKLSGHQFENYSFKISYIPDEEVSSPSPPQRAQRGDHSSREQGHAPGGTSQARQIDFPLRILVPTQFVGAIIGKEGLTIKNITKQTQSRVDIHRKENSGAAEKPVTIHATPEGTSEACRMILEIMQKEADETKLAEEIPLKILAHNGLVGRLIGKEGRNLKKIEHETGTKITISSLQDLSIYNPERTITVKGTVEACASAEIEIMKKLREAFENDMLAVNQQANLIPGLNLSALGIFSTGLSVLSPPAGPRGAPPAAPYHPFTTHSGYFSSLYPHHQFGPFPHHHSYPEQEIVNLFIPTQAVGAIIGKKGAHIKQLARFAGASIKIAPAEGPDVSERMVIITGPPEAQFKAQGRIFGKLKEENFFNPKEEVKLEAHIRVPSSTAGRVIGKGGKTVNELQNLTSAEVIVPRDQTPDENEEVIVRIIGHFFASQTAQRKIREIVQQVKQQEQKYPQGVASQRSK
# UniProt P07737: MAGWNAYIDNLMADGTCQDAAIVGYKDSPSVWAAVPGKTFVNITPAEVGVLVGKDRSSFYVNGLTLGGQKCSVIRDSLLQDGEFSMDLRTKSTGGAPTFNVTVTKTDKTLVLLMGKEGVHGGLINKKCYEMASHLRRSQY
# UniProt O00571: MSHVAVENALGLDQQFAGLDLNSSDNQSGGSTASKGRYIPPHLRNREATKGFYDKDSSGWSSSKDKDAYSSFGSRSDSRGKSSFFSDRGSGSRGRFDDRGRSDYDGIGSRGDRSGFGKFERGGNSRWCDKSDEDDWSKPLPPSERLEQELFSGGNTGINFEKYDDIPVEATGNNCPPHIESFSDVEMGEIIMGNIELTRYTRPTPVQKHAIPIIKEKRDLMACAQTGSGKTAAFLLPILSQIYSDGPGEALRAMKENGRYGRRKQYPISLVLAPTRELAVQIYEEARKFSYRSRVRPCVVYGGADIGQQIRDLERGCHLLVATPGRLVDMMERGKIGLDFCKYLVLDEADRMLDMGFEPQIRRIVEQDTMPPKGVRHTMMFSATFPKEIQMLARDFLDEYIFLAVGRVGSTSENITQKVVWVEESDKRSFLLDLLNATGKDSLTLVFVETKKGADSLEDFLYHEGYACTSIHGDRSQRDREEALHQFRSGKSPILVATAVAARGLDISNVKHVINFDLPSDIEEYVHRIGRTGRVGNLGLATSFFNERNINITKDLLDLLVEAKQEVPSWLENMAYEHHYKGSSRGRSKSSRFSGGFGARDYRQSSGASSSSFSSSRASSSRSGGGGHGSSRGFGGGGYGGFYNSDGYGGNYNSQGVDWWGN
# UniProt P55010: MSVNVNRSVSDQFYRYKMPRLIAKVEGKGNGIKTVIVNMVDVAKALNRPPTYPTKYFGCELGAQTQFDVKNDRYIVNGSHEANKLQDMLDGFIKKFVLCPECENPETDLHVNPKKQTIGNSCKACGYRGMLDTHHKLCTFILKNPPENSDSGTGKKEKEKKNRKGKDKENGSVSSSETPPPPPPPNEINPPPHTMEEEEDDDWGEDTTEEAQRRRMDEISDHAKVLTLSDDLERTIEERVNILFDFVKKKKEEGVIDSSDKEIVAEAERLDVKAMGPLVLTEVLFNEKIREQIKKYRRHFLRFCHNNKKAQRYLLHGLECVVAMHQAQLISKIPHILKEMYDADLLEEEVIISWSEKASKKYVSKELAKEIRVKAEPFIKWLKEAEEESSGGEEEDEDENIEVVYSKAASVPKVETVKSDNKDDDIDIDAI
# UniProt Q15365: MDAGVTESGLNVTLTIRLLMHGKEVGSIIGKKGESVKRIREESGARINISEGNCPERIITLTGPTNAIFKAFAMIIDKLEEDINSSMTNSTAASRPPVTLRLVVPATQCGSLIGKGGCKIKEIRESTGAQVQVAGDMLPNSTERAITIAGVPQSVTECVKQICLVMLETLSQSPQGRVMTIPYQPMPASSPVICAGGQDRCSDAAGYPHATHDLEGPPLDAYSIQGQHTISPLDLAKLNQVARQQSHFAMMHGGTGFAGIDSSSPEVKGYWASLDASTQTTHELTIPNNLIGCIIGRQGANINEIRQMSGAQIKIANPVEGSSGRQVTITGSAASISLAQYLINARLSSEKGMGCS
# UniProt Q07955: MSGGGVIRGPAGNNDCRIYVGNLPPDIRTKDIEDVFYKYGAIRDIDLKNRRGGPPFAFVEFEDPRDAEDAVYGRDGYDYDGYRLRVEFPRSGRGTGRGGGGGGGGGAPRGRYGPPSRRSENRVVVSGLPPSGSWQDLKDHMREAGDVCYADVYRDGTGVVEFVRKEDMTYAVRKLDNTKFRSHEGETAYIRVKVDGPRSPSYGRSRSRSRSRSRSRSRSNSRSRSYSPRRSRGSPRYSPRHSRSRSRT
# UniProt Q14157: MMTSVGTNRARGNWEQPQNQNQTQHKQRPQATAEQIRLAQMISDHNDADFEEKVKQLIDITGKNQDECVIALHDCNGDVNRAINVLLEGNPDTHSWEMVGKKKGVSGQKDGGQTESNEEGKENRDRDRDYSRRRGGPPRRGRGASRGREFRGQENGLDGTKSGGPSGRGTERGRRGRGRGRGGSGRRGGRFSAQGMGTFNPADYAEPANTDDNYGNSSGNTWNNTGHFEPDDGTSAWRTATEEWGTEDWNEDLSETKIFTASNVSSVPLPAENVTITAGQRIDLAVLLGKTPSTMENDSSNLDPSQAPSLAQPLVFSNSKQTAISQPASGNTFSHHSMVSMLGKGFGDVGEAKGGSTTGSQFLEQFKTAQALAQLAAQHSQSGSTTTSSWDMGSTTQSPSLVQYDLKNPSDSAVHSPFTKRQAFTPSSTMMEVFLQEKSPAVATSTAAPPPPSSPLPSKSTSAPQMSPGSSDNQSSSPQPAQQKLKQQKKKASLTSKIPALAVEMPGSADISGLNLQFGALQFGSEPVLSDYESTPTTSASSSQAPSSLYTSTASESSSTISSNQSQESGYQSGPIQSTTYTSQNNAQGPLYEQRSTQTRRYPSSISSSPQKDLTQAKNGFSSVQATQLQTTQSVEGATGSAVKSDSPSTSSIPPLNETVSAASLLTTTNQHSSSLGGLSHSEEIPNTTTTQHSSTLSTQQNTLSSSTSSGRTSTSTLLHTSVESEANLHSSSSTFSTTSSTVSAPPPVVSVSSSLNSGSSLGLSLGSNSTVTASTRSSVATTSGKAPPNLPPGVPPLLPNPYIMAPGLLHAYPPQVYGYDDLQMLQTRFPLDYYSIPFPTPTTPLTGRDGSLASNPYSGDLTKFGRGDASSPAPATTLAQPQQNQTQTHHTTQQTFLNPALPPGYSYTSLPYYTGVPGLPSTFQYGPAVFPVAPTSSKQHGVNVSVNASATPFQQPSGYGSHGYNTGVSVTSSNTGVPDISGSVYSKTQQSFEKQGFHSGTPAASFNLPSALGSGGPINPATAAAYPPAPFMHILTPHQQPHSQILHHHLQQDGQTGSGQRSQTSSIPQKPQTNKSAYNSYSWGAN
# UniProt Q7Z739: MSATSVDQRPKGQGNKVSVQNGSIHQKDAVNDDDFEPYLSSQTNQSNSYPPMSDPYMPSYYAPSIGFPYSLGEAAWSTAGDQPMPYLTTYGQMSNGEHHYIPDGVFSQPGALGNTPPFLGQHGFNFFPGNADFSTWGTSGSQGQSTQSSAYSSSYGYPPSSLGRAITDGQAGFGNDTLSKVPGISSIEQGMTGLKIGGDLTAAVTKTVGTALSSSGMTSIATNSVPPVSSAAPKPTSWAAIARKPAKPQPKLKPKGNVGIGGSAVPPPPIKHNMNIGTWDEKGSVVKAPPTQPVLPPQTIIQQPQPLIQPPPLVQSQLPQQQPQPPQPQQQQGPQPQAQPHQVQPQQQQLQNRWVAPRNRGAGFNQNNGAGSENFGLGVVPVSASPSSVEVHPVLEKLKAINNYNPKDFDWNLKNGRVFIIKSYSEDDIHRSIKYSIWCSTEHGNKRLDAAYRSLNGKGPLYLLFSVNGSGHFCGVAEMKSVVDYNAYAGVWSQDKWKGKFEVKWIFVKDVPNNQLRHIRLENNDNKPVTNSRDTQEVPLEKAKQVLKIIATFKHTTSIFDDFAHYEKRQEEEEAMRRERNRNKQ
# UniProt Q04637: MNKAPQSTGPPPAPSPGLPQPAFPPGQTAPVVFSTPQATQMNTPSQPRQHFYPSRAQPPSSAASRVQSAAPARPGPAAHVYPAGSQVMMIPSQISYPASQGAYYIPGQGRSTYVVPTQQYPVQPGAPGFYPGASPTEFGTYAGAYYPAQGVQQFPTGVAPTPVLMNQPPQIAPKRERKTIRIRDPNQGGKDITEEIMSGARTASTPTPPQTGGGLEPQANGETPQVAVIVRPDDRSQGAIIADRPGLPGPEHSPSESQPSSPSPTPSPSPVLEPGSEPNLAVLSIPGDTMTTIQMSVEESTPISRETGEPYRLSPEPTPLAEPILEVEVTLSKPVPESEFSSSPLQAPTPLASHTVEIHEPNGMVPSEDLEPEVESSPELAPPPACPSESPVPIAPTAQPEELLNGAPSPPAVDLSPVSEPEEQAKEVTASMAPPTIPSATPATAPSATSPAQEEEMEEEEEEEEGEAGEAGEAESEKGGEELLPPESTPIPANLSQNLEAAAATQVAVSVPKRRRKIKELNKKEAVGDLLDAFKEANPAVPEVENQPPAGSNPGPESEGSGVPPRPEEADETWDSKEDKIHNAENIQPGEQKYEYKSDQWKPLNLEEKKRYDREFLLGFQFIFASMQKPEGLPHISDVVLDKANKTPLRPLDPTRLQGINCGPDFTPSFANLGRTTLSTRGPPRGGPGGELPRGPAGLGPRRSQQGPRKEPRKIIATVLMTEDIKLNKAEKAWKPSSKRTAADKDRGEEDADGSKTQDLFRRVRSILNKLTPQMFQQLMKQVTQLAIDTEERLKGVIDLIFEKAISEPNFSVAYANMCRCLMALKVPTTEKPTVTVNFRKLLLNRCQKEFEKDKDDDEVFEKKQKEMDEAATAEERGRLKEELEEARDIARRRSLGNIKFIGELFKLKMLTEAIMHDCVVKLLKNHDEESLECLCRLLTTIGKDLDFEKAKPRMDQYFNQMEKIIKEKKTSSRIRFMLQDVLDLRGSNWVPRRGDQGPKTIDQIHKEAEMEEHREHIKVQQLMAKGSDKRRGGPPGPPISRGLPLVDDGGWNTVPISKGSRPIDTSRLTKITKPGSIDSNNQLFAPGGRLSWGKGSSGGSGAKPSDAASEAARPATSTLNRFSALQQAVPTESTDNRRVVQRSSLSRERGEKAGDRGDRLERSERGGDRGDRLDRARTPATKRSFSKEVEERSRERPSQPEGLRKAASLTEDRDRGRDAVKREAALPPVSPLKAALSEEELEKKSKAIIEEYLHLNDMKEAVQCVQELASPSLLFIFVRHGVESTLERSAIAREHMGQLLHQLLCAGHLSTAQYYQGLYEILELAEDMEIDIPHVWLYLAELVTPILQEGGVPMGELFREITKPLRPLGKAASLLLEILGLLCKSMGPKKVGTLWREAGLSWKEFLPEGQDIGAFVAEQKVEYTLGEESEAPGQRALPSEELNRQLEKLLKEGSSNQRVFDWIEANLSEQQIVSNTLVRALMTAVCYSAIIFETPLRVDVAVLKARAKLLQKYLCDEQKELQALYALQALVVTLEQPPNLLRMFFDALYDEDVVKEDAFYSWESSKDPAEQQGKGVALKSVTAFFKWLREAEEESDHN
# UniProt P11940: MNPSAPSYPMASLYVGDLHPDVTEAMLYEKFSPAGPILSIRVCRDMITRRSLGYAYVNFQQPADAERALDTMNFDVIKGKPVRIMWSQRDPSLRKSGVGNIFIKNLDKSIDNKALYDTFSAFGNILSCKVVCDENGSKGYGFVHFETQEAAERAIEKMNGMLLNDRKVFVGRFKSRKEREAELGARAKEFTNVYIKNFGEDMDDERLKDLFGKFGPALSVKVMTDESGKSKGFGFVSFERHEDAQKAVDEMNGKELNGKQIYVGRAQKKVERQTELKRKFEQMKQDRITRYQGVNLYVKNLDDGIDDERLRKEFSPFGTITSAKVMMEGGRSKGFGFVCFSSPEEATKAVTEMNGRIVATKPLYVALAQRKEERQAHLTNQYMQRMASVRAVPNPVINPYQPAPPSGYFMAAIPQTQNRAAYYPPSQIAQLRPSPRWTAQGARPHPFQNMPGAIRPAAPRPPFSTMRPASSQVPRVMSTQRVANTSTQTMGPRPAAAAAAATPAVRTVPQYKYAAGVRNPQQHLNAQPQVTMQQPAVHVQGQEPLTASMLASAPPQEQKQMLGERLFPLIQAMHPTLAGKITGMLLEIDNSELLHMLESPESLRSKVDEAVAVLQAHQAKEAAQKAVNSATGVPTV
# No constants are given. Whether binding was seen depends on the method and setting. In cells and extracts the contact can be indirect. These calls come from enrichment with a bait or labelling near it, and not all partners need be listed.
# Target: G3BP1-APEX fusion protein (UniProt Q13283)
# Assay: proximity labelling; G3BP1-APEX (heavy SILAC) against CTRL-APEX (light SILAC) in PC-3 cells, vehicle or arsenite (200 uM, 2 h); biotin tagging, streptavidin pulldown, LC-MS/MS (Orbitrap); triplicates
row,binding,Substance
1,binds,CNOT1 (from UniProt A5YKK6 1-2376)
2,binds,EIF3G (from UniProt O75821 1-320)
3,binds,EIF3K (from UniProt Q9UBQ5 1-218)
4,binds,IGF2BP2 (from UniProt Q9Y6M1 1-599)
5,binds,PFN1 (from UniProt P07737 1-140)
6,binds,SND1 (from UniProt Q7KZF4 1-910)

# More lines, now with the values behind:
row,Substance,binding
1,DDX3X (from UniProt O00571 1-662),binds
2,DDX5 (from UniProt P17844 1-614),binds
3,EIF4H (from UniProt Q15056 1-248),binds
4,EIF5 (from UniProt P55010 1-431),binds
5,GNB2 (from UniProt P62879 1-340),binds
6,HNRNPK (from UniProt P61978 1-463),binds
7,PCBP1 (from UniProt Q15365 1-356),binds
8,SRSF1 (from UniProt Q07955 1-248),binds
9,UBAP2L (from UniProt Q14157 1-1087),binds
10,VCP (from UniProt P55072 1-806),binds
11,YTHDF3 (from UniProt Q7Z739 1-585),binds
12,eIF4G1 (from UniProt Q04637 1-1599),binds

# Target: G3BP1-APEX fusion protein (UniProt Q13283)
# Assay: proximity labelling; G3BP1-APEX transiently expressed in PC-3 cells, vehicle or arsenite (200 uM, 2 h); biotin-tyramide 500 uM 30 min and H2O2 1 mM 1 min; biotinylated proteins pulled down with Dynabeads M-280 Streptavidin; Western blot
row,binding,Substance
1,binds,PABC1 (from UniProt P11940 1-636)
2,binds,eIF4G1 (from UniProt Q04637 1-1599)
